Values from PubChem BioAssay AID1259254 (NCATS, 2017)
The deposit covers about 59,000 reagents; shown is an unselected part. About 1,550 of all reagents (2.6%) count as active. 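G2 share is only a proxy for re-replication; each gene was hit by three separate siRNAs, and active genes were retested.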 Reagents against one gene are numbered here. Not all columns of the deposit are shown. No sequences are given here. The record does not give: the amount of reagent.

- Aim: 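Genome-wide screen for genes that prevent DNA re-replication in cancer cells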 (primary screen)
- Cell system: human HCT116 colorectal cancer cells
- Reagent: single siRNA against human genes
- Time to read-out: 3 days
- Measured: 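Imaged Hoechst DNA stain sorts each cell into a cycle phase by DNA amount; per plate, G2 fraction set to 0% for non-targeting and 100% for GMNN siRNA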
- Scale: G2 robust z-score and G2 cells, % of GMNN control: higher = more G2 cells, more excess DNA replication
- Hit rule: 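An siRNA counts as active if its G2 robust z-score lies at least 5 MADs above the screen median; here such calls match roughly 38% of GMNN control or more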

gene	reagent	G2 robust z-score	G2 cells, % of GMNN control	Outcome
CDKN2AIP	1	1.08	10.6	inactive
CDKN2AIP	2	-0.509	-0.612	inactive
CDKN2AIP	3	-1.1	-4.77	inactive
DHRS12	1	-0.612	-1.34	inactive
DHRS12	2	-0.192	1.62	inactive
DHRS12	3	-0.702	-1.97	inactive
MCMDC2	1	-0.467	-0.318	inactive
MCMDC2	2	-0.292	0.91	inactive
MCMDC2	3	-1.02	-4.23	inactive
TBL2	1	0.442	6.07	inactive
TBL2	2	-1.38	-6.75	inactive
TBL2	3	-0.31	0.787	inactive
MMP14	1	3.46	27.3	inactive
MMP14	2	1.07	10.5	inactive
MMP14	3	1.02	10.1	inactive
KLHL10	1	3.95	30.7	inactive
KLHL10	2	0.201	4.38	inactive
KLHL10	3	-0.34	0.572	inactive
CC2D2A	1	-0.382	0.282	inactive
CC2D2A	2	0.492	6.43	inactive
CC2D2A	3	-0.598	-1.24	inactive
NAA60	1	0.104	3.7	inactive
NAA60	2	-0.238	1.29	inactive
NAA60	3	-0.379	0.304	inactive
ADCY5	1	0.45	6.14	inactive
ADCY5	2	0.327	5.27	inactive
ADCY5	3	5.01	38.2	active
NME8	1	-1.59	-8.22	inactive
NME8	2	0.847	8.93	inactive
NME8	3	0.525	6.66	inactive
MAP4	1	-0.396	0.18	inactive
MAP4	2	3.02	24.2	inactive
MAP4	3	1.32	12.2	inactive
PPDPF	1	-0.86	-3.08	inactive
PPDPF	2	-1.09	-4.67	inactive
PPDPF	3	0.721	8.04	inactive
HSPE1	1	-0.131	2.05	inactive
HSPE1	2	-0.957	-3.76	inactive
HSPE1	3	1.46	13.2	inactive
HAPSTR1	1	5.22	39.7	active
HAPSTR1	2	2.76	22.4	inactive
HAPSTR1	3	0.312	5.16	inactive

Continued, starting with the last 3 of the part before.
gene	reagent	G2 robust z-score	G2 cells, % of GMNN control	Outcome
HAPSTR1	1	5.22	39.7	active
HAPSTR1	2	2.76	22.4	inactive
HAPSTR1	3	0.312	5.16	inactive
LOC729900	1	0.0692	3.45	inactive
LOC729900	2	0.766	8.35	inactive
LOC729900	3	0.425	5.96	inactive
DUSP16	1	-0.0772	2.42	inactive
DUSP16	2	-0.582	-1.12	inactive
DUSP16	3	1.45	13.2	inactive
MTMR9	1	-0.211	1.48	inactive
MTMR9	2	0.136	3.92	inactive
MTMR9	3	1.18	11.3	inactive
EFNB1	1	5.13	39.1	active
EFNB1	2	-0.793	-2.61	inactive
EFNB1	3	-0.361	0.426	inactive
RAG2	1	-0.912	-3.45	inactive
RAG2	2	2.69	21.9	inactive
RAG2	3	-0.0952	2.3	inactive
SLC9A3	1	0.0291	3.17	inactive
SLC9A3	2	-0.272	1.05	inactive
SLC9A3	3	0.000833	2.97	inactive
ABCC3	1	-1.11	-4.86	inactive
ABCC3	2	4.61	35.4	inactive
ABCC3	3	0.0198	3.11	inactive
KNG1	1	-0.123	2.1	inactive
KNG1	2	1.41	12.9	inactive
KNG1	3	-0.429	-0.0537	inactive
APPBP2	1	-0.888	-3.28	inactive
APPBP2	2	-1.48	-7.45	inactive
APPBP2	3	-0.238	1.3	inactive
